PubChem BioAssay AID1259278 | Sanger Institute – 2017

Assay: 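Follow-up of kinome siRNA hits that combine with three anchor drugs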 (follow-up of hits)
Cells: human HT55 colorectal cancer cells
Knock-down reagent: single siRNA against human genes
Treatment: anchor drugs added to knock-down cells: cetuximab 5 µg/ml, trametinib 10 nM or BYL719 1 µM, against DMSO vehicle; chosen to hurt viability little alone
Read-out: 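Per-replicate viability normalised to control pool 2 (non-targeting) then averaged, and for every anchor drug a computed synergy score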
Direction: synergy score with BYL719 and synergy score with cetuximab and synergy score with trametinib: higher = stronger combined killing with knock-down
Hit rule: 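a synergy score over 0.10 with BYL719, cetuximab or trametinib makes the knock-down a hit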
Calls: active = synergy with an anchor drug; inactive = no synergy
Here is a random part of 160 reagents. In the full data, 54 (34%) were called active. 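Each call rests on one siRNA duplex in one cell line; gene-level support needs several duplexes and lines.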 Entries without a mark were called inactive. The numbers tell different reagents against one gene apart. Not all columns of the deposit are shown. Not given: the amount of reagent, the time to read-out.

The first 2 records, ahead of the listing:
MAP3K8 (mitogen-activated protein kinase kinase kinase 8) #1 — synergy score with BYL719 = -0.0242 (active); synergy score with cetuximab = 0.124; synergy score with trametinib = 0.25
MAP3K8 (mitogen-activated protein kinase kinase kinase 8) #2 — synergy score with BYL719 = -0.0543; synergy score with cetuximab = 0.0123; synergy score with trametinib = 0.00784

The listing, from the start:
MAP3K8 (mitogen-activated protein kinase kinase kinase 8) #1 — synergy score with BYL719 = -0.0242 (active); synergy score with cetuximab = 0.124; synergy score with trametinib = 0.25
MAP3K8 (mitogen-activated protein kinase kinase kinase 8) #2 — synergy score with BYL719 = -0.0543; synergy score with cetuximab = 0.0123; synergy score with trametinib = 0.00784
MAP3K8 (mitogen-activated protein kinase kinase kinase 8) #3 — synergy score with BYL719 = -0.132; synergy score with cetuximab = -0.212; synergy score with trametinib = -0.0242
MAP3K8 (mitogen-activated protein kinase kinase kinase 8) #4 — synergy score with BYL719 = -0.0181 (active); synergy score with cetuximab = 0.116; synergy score with trametinib = 0.104
BRAF (B-Raf proto-oncogene, serine/threonine kinase) #1 — synergy score with BYL719 = -0.0277; synergy score with cetuximab = 0.0724; synergy score with trametinib = 0.0256
BRAF (B-Raf proto-oncogene, serine/threonine kinase) #2 — synergy score with BYL719 = -0.0612; synergy score with cetuximab = 0.00592; synergy score with trametinib = 0.0908
BRAF (B-Raf proto-oncogene, serine/threonine kinase) #3 — synergy score with BYL719 = -0.104 (active); synergy score with cetuximab = 0.0312; synergy score with trametinib = 0.107
BRAF (B-Raf proto-oncogene, serine/threonine kinase) #4 — synergy score with BYL719 = -0.0495; synergy score with cetuximab = -0.0874; synergy score with trametinib = 0.0541
STK36 (serine/threonine kinase 36) #1 — synergy score with BYL719 = 0.0224 (active); synergy score with cetuximab = 0.167; synergy score with trametinib = 0.0999
STK36 (serine/threonine kinase 36) #2 — synergy score with BYL719 = -0.0256 (active); synergy score with cetuximab = 0.256; synergy score with trametinib = 0.188
STK36 (serine/threonine kinase 36) #3 — synergy score with BYL719 = -0.348; synergy score with cetuximab = -0.114; synergy score with trametinib = -0.0279
STK36 (serine/threonine kinase 36) #4 — synergy score with BYL719 = -0.0333; synergy score with cetuximab = 0.0241; synergy score with trametinib = 0.0417
COASY (Coenzyme A synthase) #1 — synergy score with BYL719 = -0.0779; synergy score with cetuximab = 0.0874; synergy score with trametinib = 0.0364
COASY (Coenzyme A synthase) #2 — synergy score with BYL719 = -0.0284; synergy score with cetuximab = -0.0501; synergy score with trametinib = -0.067
COASY (Coenzyme A synthase) #3 — synergy score with BYL719 = -0.0207; synergy score with cetuximab = 0.0329; synergy score with trametinib = -0.0483
COASY (Coenzyme A synthase) #4 — synergy score with BYL719 = -0.107; synergy score with cetuximab = -0.128; synergy score with trametinib = -0.0816
MARK3 (microtubule affinity regulating kinase 3) #1 — synergy score with BYL719 = -0.214; synergy score with cetuximab = -0.00885; synergy score with trametinib = 0.0935
MARK3 (microtubule affinity regulating kinase 3) #2 — synergy score with BYL719 = -0.00395; synergy score with cetuximab = 0.0716; synergy score with trametinib = 0.0878
MARK3 (microtubule affinity regulating kinase 3) #3 — synergy score with BYL719 = 0.0801 (active); synergy score with cetuximab = 0.165; synergy score with trametinib = 0.18
MARK3 (microtubule affinity regulating kinase 3) #4 — synergy score with BYL719 = 0.0707 (active); synergy score with cetuximab = 0.16; synergy score with trametinib = 0.24
IRAK3 (interleukin 1 receptor associated kinase 3) #1 — synergy score with BYL719 = -0.0772 (active); synergy score with cetuximab = 0.118; synergy score with trametinib = 0.0814
IRAK3 (interleukin 1 receptor associated kinase 3) #2 — synergy score with BYL719 = -0.103 (active); synergy score with cetuximab = 0.088; synergy score with trametinib = 0.304
IRAK3 (interleukin 1 receptor associated kinase 3) #3 — synergy score with BYL719 = -0.144; synergy score with cetuximab = 0.023; synergy score with trametinib = 0.000399
IRAK3 (interleukin 1 receptor associated kinase 3) #4 — synergy score with BYL719 = 0.132 (active); synergy score with cetuximab = 0.03; synergy score with trametinib = 0.158
